Measured values published in patent US7067486B2, “Acetylcholinesterase-derived peptides and uses thereof” (priority 1999, dated 2006).
Part of at least one peptide drawing is inferred or uncertain, most often the ends. Where no end group is shown, it is not given here.

System: CD34^+ cells
Assay: BrdU incorporation into CD34+ cells (cell proliferation)
Format: cell-based, human
Settings: for BrdU incorporation values: peptide 2 nM, cord blood CD34+ cells
Description: Cell Source: UCB was collected, following informed consent of the parents and with the approval of the Sourasky Medical Center Ethics Committee, as previously described [Grisaru et al. (1999a) Am. J. Obstet. Gynecol, 180, 1240–1243]. Following 1:1 (v/v) dilution in Iscove's modified Dulbecco medium (IMDM, Beit Haemek, Israel), mononuclear cells were separated using 3% gelatin (Difco, Detroit, Mich.) and Ficoll-Hypaque gradients (<1.077 g/ml; Pharmacia, Uppsala, Sweden) [Pick et al. (1998) Br. J. Haematol. 103, 639–50]. CD34^+ cells were enriched using CD34 immunoglobulin-coated magnetic beads (CD34 progenitor cell selection system, Dynal, Norway).CD34^+ cells analysis was performed by flow cytometry (Becton Dickinson Immunocytochemistry System Inc., San Jose, Calif.), using CD34-PE (Becton Dickinson Immunocytometry System, Inc.) and CD45-FITC (Dako, Glostrup, Denmark) monoclonal antibodies. […] Liquid Cultures: UCB CD34^+ cells were set for liquid cultures at a concentration of 10^5/mL in IMDM, containing 10% autologous plasma, 2 mM L-glutamine (Sigma Chemical Co., St Louis, Mo.), penicillin ([…]), streptomycin ([…]), amphotericin B (2×10^−5 M) (Sigma Chemical Co.), and heparin (20 IU/mL, Gibco, Grand Island, N.Y.), all in a fully humidified atmosphere at 37° C. and 5% CO2. The following elements were added where noted: • 1. Hematopoietic growth factors: Interleukin 3 (IL3, 5 ng/mL, Immunex, Seattle, Wash.), interleukin 6 (IL6, 50 ng/mL, R&D Systems, Minneapolis, Minn.), TPO (1 ng/mL, R&D Systems), stem cell factor (SCF, 10 ng/mL, R&D Systems), FLT-3 ligand (FLT3, 50 ng/mL, R&D Systems), granulocyte-macrophage colony stimulating factor (GM-CSF, 50 ng/mL, Biogenesis Ltd, Bournemouth, UK) and combinations of the above, for 24 hr to 28 days (supplemented every 4 days). • 2. Endothlial Growth factors: Epidermal growth factor (EGF 10 ng/ml, Sigma Chemical Co.), basic Fibroblast growth factor (bFGF 20 ng/ml, Sigma Chemical Co.) incubated in a serum free medium (SFM) for 48 hr. • 3. Stress mimicking conditions: Hydrocortisone sodium succinate (Abic Ltd., Netanya, Israel) at concentrations equivalent to normal, intermediate and stress serum cortisol levels (0.1, 0.6 and 1.2 μM, respectively (De Vroede et al., Arch. Des. Child 78, 544–7, 1998), for 24 hr. • 4. Antisense oligonucleotides: 3′-terminal 2′-O-Methylated 15- and 20-mer oligodeoxynucleotides in the antisense (AS) orientation, targeted against the common sequence domain in human AChEmRNA and BuChE mRNA, as control, were used for 24 hr, as detailed elsewhere [Grisaru et al. (1999b) Mol. Cell. Biol. 19, 788–95]. • 5. AChE C-terminal peptides: The following C-terminal peptides of the AChE synaptic (ASP, also denoted SEQ ID: No. 2) and readthrough (ARP, also denoted SEQ ID: No. 1) isoforms were synthesized using a 433A peptide synthesizer (PE Applied Biosystems, Inc., Norwalk, Conn.). • ASP: 1-[…]-40, also denoted as SEQ ID: No. 2. • ARP: 1-[…]-26, also denoted as SEQ ID: No. 1.
[…] (1999b) id ibid.]. Twenty-eight day liquid cultures were sampled every 6–8 days for viable cell counting (using trypan blue dye exclusion), cell phenotyping (CD34^+, CD33^+ and CD41^+ quantification using flow cytometry, with CD34-PE, CD33-FITC (Immunotech/Coulter, Hialeah, Fla.), CD41-FITC (Immunoquality Products, Groningen, Netherlands) and CD45-FITC monoclonal antibodies), and growth of progenitor colony (granulocyte-macrophage and megakaryocytic), using previously described techniques (Pick et al. (1998) id ibid.). […] 11, 1049–57]. Nuclear staining w with 4′,6-diamidino-2- phenylindole [DAPI, see e.g., Peterson et al. (1999) Genetics 152, 427–439].

GMQGPAGSGWEEGSGSPPGVTPLFSP [ARP]
BrdU incorporation when added alone (16 hr, 20 pM AS-ODN or 50 ng/ml ARP, no GM-CSF): did not affect | effect on GM-CSF-induced BrdU incorporation (16 hr, added together with GM-CSF, ARP 50 ng/ml or AS-ODN 20 pM): significantly potentiated | BrdU incorporation values (16 hrs post-plating): 0.110 ± 0.005 | BrdU incorporation values (24 hrs post-plating): 0.275 ± 0.045 | BrdU incorporation values (36 hrs post-plating): 0.423 ± 0.099 | effect on AS1-induced suppression of BrdU incorporation (GM-CSF and ARP together with AS1, 16 hr): completely reversed
